Measured values from paper doi:10.1101/2023.01.15.524101.

Chains of the proteins cited; added tags and fusions are not shown. Lines headed by an entry give the natural chain unless they say otherwise; changes in a name come on top.
UniProt O08838: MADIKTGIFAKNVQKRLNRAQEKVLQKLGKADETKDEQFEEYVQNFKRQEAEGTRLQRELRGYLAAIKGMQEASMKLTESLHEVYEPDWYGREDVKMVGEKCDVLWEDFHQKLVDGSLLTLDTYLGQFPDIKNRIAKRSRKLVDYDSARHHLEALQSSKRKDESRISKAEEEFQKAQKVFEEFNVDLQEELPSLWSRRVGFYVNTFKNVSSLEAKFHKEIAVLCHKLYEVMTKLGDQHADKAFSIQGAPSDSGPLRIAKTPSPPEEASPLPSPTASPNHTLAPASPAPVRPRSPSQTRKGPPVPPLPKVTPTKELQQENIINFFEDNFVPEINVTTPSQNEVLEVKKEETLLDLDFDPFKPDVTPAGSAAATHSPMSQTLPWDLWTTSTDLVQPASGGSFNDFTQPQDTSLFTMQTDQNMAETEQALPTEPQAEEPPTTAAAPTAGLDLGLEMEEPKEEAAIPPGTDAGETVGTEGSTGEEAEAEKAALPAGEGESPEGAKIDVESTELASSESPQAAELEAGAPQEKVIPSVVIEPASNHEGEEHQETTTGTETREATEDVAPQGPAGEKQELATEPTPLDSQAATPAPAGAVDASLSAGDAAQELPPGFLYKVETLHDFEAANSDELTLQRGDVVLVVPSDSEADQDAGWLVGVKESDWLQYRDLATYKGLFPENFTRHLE
UniProt P11442: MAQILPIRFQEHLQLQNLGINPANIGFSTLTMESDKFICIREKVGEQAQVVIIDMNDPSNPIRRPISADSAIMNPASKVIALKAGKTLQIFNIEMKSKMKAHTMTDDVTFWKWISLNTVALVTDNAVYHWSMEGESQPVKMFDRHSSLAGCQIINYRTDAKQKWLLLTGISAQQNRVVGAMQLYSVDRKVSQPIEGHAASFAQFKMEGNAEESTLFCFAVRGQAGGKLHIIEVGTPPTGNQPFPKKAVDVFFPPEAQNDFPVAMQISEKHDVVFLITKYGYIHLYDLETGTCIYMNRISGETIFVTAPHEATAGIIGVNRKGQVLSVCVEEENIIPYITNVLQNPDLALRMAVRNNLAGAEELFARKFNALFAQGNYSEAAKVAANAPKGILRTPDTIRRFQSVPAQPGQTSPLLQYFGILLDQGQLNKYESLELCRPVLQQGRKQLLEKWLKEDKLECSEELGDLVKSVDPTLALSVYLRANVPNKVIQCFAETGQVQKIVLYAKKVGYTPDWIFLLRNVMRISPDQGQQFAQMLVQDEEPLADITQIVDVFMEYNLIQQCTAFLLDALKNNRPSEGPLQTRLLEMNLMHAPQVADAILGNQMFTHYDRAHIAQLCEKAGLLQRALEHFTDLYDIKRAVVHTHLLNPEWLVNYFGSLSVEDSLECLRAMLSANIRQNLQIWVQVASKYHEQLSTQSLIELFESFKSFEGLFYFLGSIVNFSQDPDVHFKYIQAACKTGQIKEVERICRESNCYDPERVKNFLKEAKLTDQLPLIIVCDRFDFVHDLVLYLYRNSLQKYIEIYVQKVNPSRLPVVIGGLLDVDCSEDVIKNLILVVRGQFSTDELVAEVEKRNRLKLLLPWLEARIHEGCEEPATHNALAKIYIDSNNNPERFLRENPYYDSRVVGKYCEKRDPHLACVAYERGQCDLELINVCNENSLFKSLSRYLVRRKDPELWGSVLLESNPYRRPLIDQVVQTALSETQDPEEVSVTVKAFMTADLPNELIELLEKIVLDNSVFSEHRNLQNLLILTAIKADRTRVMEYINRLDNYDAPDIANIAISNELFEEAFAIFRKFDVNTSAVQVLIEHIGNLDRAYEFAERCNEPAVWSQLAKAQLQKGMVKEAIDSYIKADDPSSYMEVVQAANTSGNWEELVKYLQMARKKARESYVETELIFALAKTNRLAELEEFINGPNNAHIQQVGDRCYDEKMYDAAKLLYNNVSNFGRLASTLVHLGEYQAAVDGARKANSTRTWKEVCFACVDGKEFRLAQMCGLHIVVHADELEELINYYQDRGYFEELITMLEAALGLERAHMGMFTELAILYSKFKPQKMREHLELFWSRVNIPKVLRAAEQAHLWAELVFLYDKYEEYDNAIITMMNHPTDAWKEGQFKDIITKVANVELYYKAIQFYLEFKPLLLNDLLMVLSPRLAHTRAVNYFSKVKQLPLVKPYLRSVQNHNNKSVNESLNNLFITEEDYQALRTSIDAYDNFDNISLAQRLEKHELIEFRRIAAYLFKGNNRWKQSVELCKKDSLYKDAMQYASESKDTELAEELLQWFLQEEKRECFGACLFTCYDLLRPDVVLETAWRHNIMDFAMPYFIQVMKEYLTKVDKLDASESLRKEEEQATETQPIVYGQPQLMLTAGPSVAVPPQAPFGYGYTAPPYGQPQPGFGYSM
UniProt O35179: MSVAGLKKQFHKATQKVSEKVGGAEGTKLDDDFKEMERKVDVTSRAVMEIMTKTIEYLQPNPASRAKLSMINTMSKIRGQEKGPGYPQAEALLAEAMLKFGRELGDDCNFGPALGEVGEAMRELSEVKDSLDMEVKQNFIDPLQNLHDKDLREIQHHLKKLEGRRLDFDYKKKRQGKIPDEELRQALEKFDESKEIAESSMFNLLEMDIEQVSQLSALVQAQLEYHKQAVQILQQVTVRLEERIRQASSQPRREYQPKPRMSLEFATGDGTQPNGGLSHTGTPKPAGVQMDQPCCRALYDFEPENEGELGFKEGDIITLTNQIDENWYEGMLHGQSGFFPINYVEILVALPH

B1: dynamin-1 (Dyn1) (protein, UniProt P21575 1-864)
chain: MGNRGMEDLIPLVNRLQDAFSAIGQNADLDLPQIAVVGGQSAGKSSVLENFVGRDFLPRGSGIVTRRPLVLQLVNSTTEYAEFLHCKGKKFTDFEEVRLEIEAETDRVTGTNKGISPVPINLRVYSPHVLNLTLVDLPGMTKVPVGDQPPDIEFQIRDMLMQFVTKENCLILAVSPANSDLANSDALKIAKEVDPQGQRTIGVITKLDLMDEGTDARDVLENKLLPLRRGYIGVVNRSQKDIDGKKDITAALAAERKFFLSHPSYRHLADRMGTPYLQKVLNQQLTNHIRDTLPGLRNKLQSQLLSIEKEVDEYKNFRPDDPARKTKALLQMVQQFAVDFEKRIEGSGDQIDTYELSGGARINRIFHERFPFELVKMEFDEKELRREISYAIKNIHGIRTGLFTPDLAFEATVKKQVQKLKEPSIKCVDMVVSELTSTIRKCSEKLQQYPRLREEMERIVTTHIREREGRTKEQVMLLIDIELAYMNTNHEDFIGFANAQQRSNQMNKKKTSGNQDEILVIRKGWLTINNIGIMKGGSKEYWFVLTAENLSWYKDDEEKEKKYMLSVDNLKLRDVEKGFMSSKHIFALFNTEQRNVYKDYRQLELACETQEEVDSWKASFLRAGVYPERVGDKEKASETEENGSDSFMHSMDPQLERQVETIRNLVDSYMAIVNKTVRDLMPKTIMHLMINNTKEFIFSELLANLYSCGDQNTLMEESAEQAQRRDEMLRMYHALKEALSIIGDINTTTVSTPMPPPVDDSWLQVQSVPAGRRSPTSSPTPQRRAPAVPPARPGSRGPAPGPPPAGSALGGAPPVPSRPGASPDPFGPPPQVPSRPNRAPPGVPSRSGQASPSRPESPRPPFDL

Assays:
Test in all cases: pull-down
[1] = target: GST-Amph1-ΔNBAR WT (amphiphysin-1 without the N-BAR domain, with the SH3 domain) (rat) (UniProt O08838)
[2] = target: GST-Amph1-ΔNBAR-ΔSH3 SSR (323FFE325 to SSR) (rat)
[3] = target: GST-Amph1-ΔNBAR WT (amphiphysin-1 without the N-BAR domain, with the SH3 domain) (rat) (UniProt O08838); remark: listed apart in the source

Molecule | binding [1] | binding [2] | binding [3]
clathrin heavy chain (CHC) (from UniProt P11442 1-1675) | binds |  | 
endophilin A1 (from UniProt O35179 1-352) | binds |  | 
B1 |  | no binding | binds

Where two headings read alike, the source gives them in different places. No constants are given. Whether binding was seen depends on the method and setting. Binding seen in cells or lysates may run through a third protein. For some of these results: Binding can be weak; no strength is given.
